Cell number change and AC50 data for 60 molecules are collected here from PubChem BioAssay AID2685 (National Center for Advancing Translational Sciences (NCATS), 2010).

SMILES strings stand for the structures. This is one part of the list. These are further read-outs of the screen, such as a control signal, another cell line or another target. No call is given for them. Most of these compounds were active or inconclusive in the main read-out, so they are no random draw. Potencies come from curve fits of mixed quality, noted in brackets.

Broadly, the AC50 is the concentration at which the activity in the assay is half-maximal.

The nature of the test: qHTS Assay for Lipid Storage Modulators in Drosophila S3 Cells.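 As to Cell number change: cells counted by Cell Tracker Red CMTPX staining in the red channel.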 Conditions: BODIPY lipid droplet fluorescence, 18-24 h; for cell number change: measured here: cell count max response, cells fed with added oleic acid. The procedure, abridged:
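Laser-scanning cytometry quantifies lipid droplet accumulation (500–530 nm total intensity; droplet/cell object ratio) in oleic acid-fed (400 uM added) Drosophila S3 cells treated with a concentration series. 20 uM Triacsin C defined 100% inhibition.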
(In qHTS, concentration-response curves come from the screen itself.)

[1] abbreviates: measured here: cell number channel AC50, cells fed with added oleic acid.
Setting [2] is: measured here: lipid fluorescence (Fed channel) AC50, cells fed with added oleic acid.

For the molecule `Cn1c(SCC(=O)Nc2ccc3c(c2)OCCO3)nnc1-c1cccnc1`, the cell number change came out at 31.6%. Moreover, the half-maximal activity concentration (AC50) under setting [1] is 29.1 µM [rising, single point]. In the case of `Cc1ccc(NC(=O)CN2C(=O)C(=O)N(C3CCCC3)C2=O)cc1Cl`, the cell number change is -24.6%. Under setting [2], the concentration at half-maximal activity (AC50) was 1.3 µM [falling, partial curve]. As to `O=C(CSc1nccc(=O)[nH]1)Nc1cc(C(F)(F)F)ccc1N1CCOCC1`, the cell number change was 7.69%. The half-maximal activity concentration (AC50) under setting [1] was 5.17 µM [rising, single point]. In the case of `NN(Cc1ccccc1)C(=S)Nc1ccc(Cl)c(Cl)c1`, the cell number change amounted to 9.4%. Turning to `COc1ccc(CN2C(=O)c3cccnc3C2=O)cc1S(=O)(=O)N1CCOc2ccccc21`, the cell number change stood at 2.31%. Moreover, under setting [2], the AC50 was 0.00517 µM [falling, full curve, poor fit]. `O=C1CCCN1CN(C(=O)c1ccc2c(c1)OCO2)c1cccc(Cl)c1`: the cell number change stood at 0.267%. Moreover, under setting [2], the concentration at half-maximal activity (AC50) was 0.731 µM [falling, full curve]. For the molecule `COc1ccc(/C=C/C(=O)c2cc(Cl)ccc2O)c(OC)c1`, the cell number change came out at 1.17%. On the same count and under the same terms, the figure for `COc1ccc2cc(C(=O)N3CCCC(Nc4ccc(F)cc4)C3)n(C)c2c1` (configuration not stated) is 1.76%.

Turning to `Cn1c(=O)c2sccc2n2c(CCCC(=O)Nc3ccccc3)nnc12`, the cell number change amounted to 3.3%. Moreover, the concentration at half-maximal activity (AC50) under setting [2] was 0.651 µM [falling, partial curve, poor fit]. As for `CCOC(=O)c1[nH]c(CSc2nnc(-c3ccncc3)n2CCOC)c(C(=O)OCC)c1C`, the cell number change was 164%. The AC50 under setting [1] is 2.91 µM [rising, full curve]. The AC50 under setting [2] was 2.59 µM [rising, full curve].

As for `COc1ccc(N2CCN(S(=O)(=O)CCNC(=O)/C=C/c3ccccc3)CC2)cc1`, the cell number change is -19.1%. Besides, the AC50 under setting [2] is 0.461 µM [falling, partial curve, poor fit]. As to `COc1ccc(CN(Cc2ccc(C(=O)O)cc2)C(=S)Nc2ccc(C)cc2)cc1OC`, under setting [2], the half-maximal activity concentration (AC50) is 29.1 µM [rising, single point]. On to `COC(=O)c1[nH]c2cc(OC)ccc2c1NC(=O)CCN1CCN(c2ccccc2)CC1`, for which the cell number change was determined as 20.3%. On to `CCOC(=O)C1CCN(C(=O)C2CCCN(c3ncnc4c3nc3n4CCCCC3)C2)CC1` (configuration not stated), for which the cell number change is -14.9%. For the same molecule, under setting [2], the half-maximal activity concentration (AC50) was 29.1 µM [rising, single point].

In the case of `O=C(CCCCCn1c(=S)[nH]c2ccc(N3CCOCC3)cc2c1=O)NCc1ccc(Cl)cc1`, the cell number change was -17.5%. The concentration at half-maximal activity (AC50) under setting [2] is 0.82 µM [falling, full curve, poor fit].

As to `CCCCCCCN(C(=O)CCl)c1ccccc1C`, the cell number change was -35.6%. For the same molecule, the AC50 under setting [1] was 20.6 µM [falling, single point]. Also, under setting [2], the concentration at half-maximal activity (AC50) was 23.1 µM [falling, single point]. As for `C=CCn1cc(C(=O)OC)c(=O)c2cc(S(=O)(=O)N3CCCCCC3)ccc21`, the cell number change was found to be 26.3%. In addition, the AC50 under setting [2] is 29.1 µM [rising, single point]. On to `O=C1[C@H]2[C@@H](c3ccc(F)cc3)N3C(=O)N(c4ccccc4)C(=O)[C@@]3(Cc3ccc(Cl)cc3)[C@H]2C(=O)N1C1CCCCC1`, for which the cell number change worked out at 44.9%. Besides, the concentration at half-maximal activity (AC50) under setting [1] is 20.6 µM [rising, partial curve, poor fit]. For the same molecule, under setting [2], the concentration at half-maximal activity (AC50) was 2.06 µM [rising, single point]. As to `Cc1ccc(C)c(NS(=O)(=O)c2cc(C(=O)NCC3CCCO3)ccc2C)c1` (configuration not stated), the cell number change is -20.6%. For the same molecule, under setting [2], the AC50 is 1.16 µM [falling, full curve, poor fit]. In the case of `CCOC(=O)c1cc2c(=O)n3ccccc3nc2n(CCOC)c1=NC(=O)C(C)(C)C`, the cell number change was -18%. The same measure, in the same setting: the figure for `COc1cc(CN2CCN(C3CCC3)CC2CCO)cc(OC)c1` (configuration not stated) is 6.93%; for `Cc1ccc(C(=O)N/C(=C\c2ccccc2F)c2nc(=S)[nH][nH]2)cc1` it is -30.2%. As for `O=C(CSc1ccccn1)c1ccc(F)cc1`, the cell number change was determined as 13.8%. Besides, the half-maximal activity concentration (AC50) under setting [1] is 0.184 µM [rising, full curve, poor fit]. In the case of `CCOC(=O)c1c(C#N)cnn1-c1ccc(C)cc1`, the cell number change was 34.2%. The half-maximal activity concentration (AC50) under setting [1] is 11.6 µM [rising, partial curve, poor fit].

For `CSCCC(Nc1ccc(S(=O)(=O)N2CCOCC2)cc1[N+](=O)[O-])C(=O)OCC(=O)NCC(C)C` (configuration not stated), the half-maximal activity concentration (AC50) under setting [2] was 0.13 µM [falling, full curve, poor fit]. For the molecule `COc1cccc(NC(=O)N2CCOCC2)c1`, the cell number change is -61.2%. Further, the concentration at half-maximal activity (AC50) under setting [1] was 32.6 µM [falling, partial curve]. The AC50 under setting [2] is 0.146 µM [rising, full curve, poor fit].

Take `CSc1nc(C)c(CCO)c(=O)[nH]1`: the cell number change was -0.652%. In addition, the concentration at half-maximal activity (AC50) under setting [1] is 6.51 µM [rising, single point].

Consider `O=C(Nc1cccc2ccccc12)c1ccc(Cn2cc(Cl)cn2)cc1`, for which the cell number change is -24.2%. For the same molecule, the AC50 under setting [2] was 2.31 µM [falling, partial curve, poor fit]. Regarding `COc1ccc(CCNC(=O)Cc2cc(OCc3ccccc3)c(OC)cc2[N+](=O)[O-])cc1OC`, the cell number change is -34.5%. The AC50 under setting [1] was 11.6 µM [falling, single point]. Further, the half-maximal activity concentration (AC50) under setting [2] is 10.3 µM [falling, partial curve]. For `O=C(CSc1nc2ccccc2c(=O)n1Cc1ccco1)NCc1ccco1`, the cell number change is -72.1%. Also, under setting [1], the AC50 was 14.6 µM [falling, partial curve]. In addition, the AC50 under setting [2] was 14.6 µM [falling, partial curve]. Take `COc1ccc(C2=CC(c3cc(OC)c(OC)c(OC)c3)NC(=S)N2)cc1` (configuration not stated): under setting [2], the AC50 was 2.31 µM [rising, partial curve].

For the molecule `CCC(C)(C)NC(=O)c1cc(S(=O)(=O)N2CCCCC2)ccc1N1CCOCC1`, under setting [2], the AC50 is 29.1 µM [rising, single point]. Consider `CCCCn1c(N)c(N(CCOC)C(=O)C2CC(=O)N(c3cccc(SC)c3)C2)c(=O)[nH]c1=O` (configuration not stated), for which the cell number change came to 14.5%. As to `O=C(NC1CCN(C(=O)Nc2cccc(Cl)c2)CC1)c1ccco1`, the cell number change came to 7.14%. Moreover, the AC50 under setting [2] is 11.6 µM [rising, partial curve].

Turning to `CNC(=O)CSc1nnc(-c2cccnc2)n1-c1ccc(C)cc1`, the cell number change is -2.95%. Moreover, the half-maximal activity concentration (AC50) under setting [2] is 0.00517 µM [falling, full curve, poor fit]. `Cn1c(NCCCN2CCOCC2)nc2c1c(=O)n(Cc1ccc(Cl)cc1)c(=O)n2C`: the cell number change was found to be 22.7%. Further, the AC50 under setting [1] is 1.16 µM [rising, full curve, poor fit]. Besides, under setting [2], the AC50 was 0.0058 µM [falling, full curve, poor fit]. In the case of `Cc1oc(-c2ccccc2Cl)nc1CS(=O)CC(=O)NCc1ccco1` (configuration not stated), the cell number change was -7.22%.

On to `c1ccc2sc(Nc3nc4cc5c(cc4s3)OCO5)nc2c1`, for which the cell number change was -20.3%. In addition, the half-maximal activity concentration (AC50) under setting [2] was 2.31 µM [rising, single point]. Turning to `COc1cc(/C=N/N2CCN(Cc3ccc(Cl)cc3)CC2)ccc1OC(C)=O`, the cell number change was -9.71%. Consider `CCOC(=O)c1c(CC(C)C)csc1NC(C)=O`, for which the cell number change is -63.5%. In addition, the concentration at half-maximal activity (AC50) under setting [1] is 29.1 µM [falling, single point]. The concentration at half-maximal activity (AC50) under setting [2] was 6.51 µM [rising, single point]. Consider `COc1ccc(-c2nnn3c2nc(NCc2ccccc2)c2ccccc23)cc1`, for which the cell number change is 28.9%. The AC50 under setting [1] is 0.82 µM [rising, full curve, poor fit]. Further, the half-maximal activity concentration (AC50) under setting [2] is 0.411 µM [rising, full curve, poor fit]. For the molecule `CC(C)Nc1nc(NC(N)=S)nc(NC(C)(C)C)n1`, the cell number change was -8.95%. In addition, the AC50 under setting [2] was 0.164 µM [falling, full curve, poor fit].

As for `CCCC[C@@H]1CNC(=S)N1CCC12CC3CC(CC(C3)C1)C2`, the cell number change is -28.6%. Under setting [2], the AC50 was 29.1 µM [falling, single point].

On to `O=C(CSc1nnc(CNC(=O)c2ccccc2F)o1)NCC1CCCO1` (configuration not stated), for which the cell number change came to 5.63%. Further, the half-maximal activity concentration (AC50) under setting [2] was 29.1 µM [falling, single point]. `CON1C(=O)C(=O)N(OC)C2CCCCCC21` (configuration not stated): the cell number change came out at 149%. Moreover, the AC50 under setting [1] is 29.1 µM [rising, single point]. For the same molecule, under setting [2], the concentration at half-maximal activity (AC50) is 23.1 µM [rising, single point]. For the molecule `CCCCNC(=O)c1cc(C)nc2ccccc12`, the cell number change is -8.92%. Also, the AC50 under setting [2] was 0.517 µM [falling, full curve, poor fit]. `O=C(NC1CCN(C(=O)NCc2ccccc2)CC1)c1ccco1`: the cell number change is -13.6%. For the same molecule, the AC50 under setting [2] is 2.31 µM [falling, full curve, poor fit]. Take `Cn1c(NC(=O)c2ccc(F)c(F)c2)cc(=O)n(C)c1=O`: the cell number change was -0.486%. Further, the AC50 under setting [1] was 0.731 µM [falling, full curve, poor fit]. Also, the AC50 under setting [2] was 6.51 µM [falling, single point].

Turning to `CCC(=O)c1cc2c(cc1NC(=O)c1ccccc1)OCCO2`, the AC50 under setting [2] is 4.11 µM [rising, partial curve]. `CC(C)[C@H](Nc1ccc(C(F)(F)F)cc1[N+](=O)[O-])C(=O)O`: the cell number change is -18.1%. Further, the AC50 under setting [2] is 3.66 µM [falling, full curve]. In the case of `O=C(CCCN1CCc2[nH]c3ccc(F)cc3c2C1)c1ccc(F)cc1`, the cell number change is 61.1%. Moreover, under setting [1], the half-maximal activity concentration (AC50) is 29.1 µM [rising, single point]. On to `CN1CCN(CC/C=C2/c3ccccc3Sc3ccc(S(=O)(=O)N(C)C)cc32)CC1`, for which the half-maximal activity concentration (AC50) under setting [2] was 0.0259 µM [falling, full curve, poor fit]. Turning to `CCN(CC)S(=O)(=O)c1ccc(OC)c(NC(=O)CSc2ccccc2)c1`, the cell number change was -19.6%. The concentration at half-maximal activity (AC50) under setting [2] was 32.6 µM [falling, single point]. As for `Cc1cc(O)ccc1Nc1nc2ccccc2nc1Nc1ccc(O)cc1C`, the cell number change was -9.45%. Besides, the AC50 under setting [2] is 0.116 µM [falling, single point]. With `CC1=C(C(=O)OCCOC(C)C)C(c2cc3c(cc2Br)OCO3)CC(=O)N1` (configuration not stated), the cell number change came out at 20.1%. On to `CCOC(=O)CSc1ncnc2c1cnn2-c1ccc(Cl)cc1`, for which, under setting [2], the AC50 was 0.116 µM [falling, full curve]. On the same count and under the same terms, the figure for `c1ccc(Nc2ccccn2)cc1` is 6.51 µM [falling, single point]. Consider `CC1=C(C(=O)OCc2ccccc2)C(c2ccc3ccccc3c2)NC(=O)N1CCCC(=O)O` (configuration not stated), for which the cell number change was -1.8%. Further, the concentration at half-maximal activity (AC50) under setting [2] was 29.1 µM [rising, single point]. As to `CC(=O)c1ccc(OCc2cc(C(=O)N3CCC[C@H]3CO)no2)cc1`, the cell number change was determined as 10.8%. For the same molecule, the AC50 under setting [2] is 29.1 µM [falling, single point]. Take `CC(C)(C)C(=O)Nc1ccc(C(=O)CSc2nnc(C3CC3)n2C2CC2)cc1`: the cell number change turned out to be 2.32%. For the same molecule, under setting [2], the half-maximal activity concentration (AC50) was 29.1 µM [rising, single point].
